Reference: publication PMC10277598
The exact form of at least one protein or probe is not confirmed.

Chains of the proteins cited; added tags and fusions are not shown. Lines headed by an entry give the natural chain unless they say otherwise; changes in a name come on top.
UniProt P69913: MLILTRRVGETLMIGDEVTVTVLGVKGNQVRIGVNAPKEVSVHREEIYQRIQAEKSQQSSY

Assays:
CsrA-His6 [1] = target: CsrA-His6 (UniProt P69913); assay: competition with a labelled probe; conditions: unlabeled hflK RNA competes with labeled hflK RNA; 0.5 nM labeled RNA, 0-400 nM CsrA, 10 mM MgCl2, 100 mM KCl, 32.5 ng total yeast RNA, 20 mM DTT, 7.5% glycerol, 4 U SUPERasin, 37 C 30 min; native PAGE in 1X TBE; recombinant protein; protein details: His6 (C-terminal by name); label: 5'-32P (binding), unlabeled as competitor; probe letters rebuilt from the primers and the genome; part of a longer molecule
CsrA-His6 [2] = target: CsrA-His6 (UniProt P69913); assay: EMSA; conditions: 10 mM MgCl2, apparent Kd, linear regression (54.7 nM in Fig. S5); 0.5 nM labeled RNA, 0-400 nM CsrA, 10 mM MgCl2, 100 mM KCl, 32.5 ng total yeast RNA, 20 mM DTT, 7.5% glycerol, 4 U SUPERasin, 37 C 30 min; native PAGE in 1X TBE; recombinant protein; protein details: His6 (C-terminal by name); label: 5'-32P (binding), unlabeled as competitor; probe letters rebuilt from the primers and the genome; part of a longer molecule

ACGGCGUAGCGUCUGAAGCGUGGAGUCAUAUCCUCUGGCGUCGAAAGACAACAGGGAUCACCGCAUAACAAAUAUGGAGCACAAACAUGGCGUGGAAUCAGCCCGGUAAUAACGGACAAGACCGCGACCCGUGG [hflK leader RNA (-86 to +48)]
binding result (CsrA-His6 [1]): binds
Kd (CsrA-His6 [2]): 0.055 µM
